# Results taken from PubChem BioAssay AID1439 (NMMLSC, 2008).
# The chains behind the UniProt entries cited, without tags or fusion partners.
# UniProt P09471, whole entry, looked up: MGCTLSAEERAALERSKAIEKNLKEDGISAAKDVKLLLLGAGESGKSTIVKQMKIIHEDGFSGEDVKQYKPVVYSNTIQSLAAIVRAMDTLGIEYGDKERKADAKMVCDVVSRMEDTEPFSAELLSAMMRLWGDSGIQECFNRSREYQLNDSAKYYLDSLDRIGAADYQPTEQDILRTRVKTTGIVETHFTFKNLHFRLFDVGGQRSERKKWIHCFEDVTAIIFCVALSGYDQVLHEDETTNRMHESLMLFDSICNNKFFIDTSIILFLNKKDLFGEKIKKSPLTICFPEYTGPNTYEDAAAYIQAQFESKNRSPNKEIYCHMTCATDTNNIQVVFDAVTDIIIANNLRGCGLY
# Among all 220,000 compounds or so, about 770 (0.35%) were called active. The shares of active, inactive and inconclusive entries below differ from those in the screen. Rule as the data show it: active = binding response below about 49% or above about 150%; inconclusive = no clear call, values can overlap the other calls; inactive = in between.
# Target: Guanine nucleotide-binding protein G(o) subunit alpha (Homo sapiens) (UniProt P09471)
# Test: RGS7-Galphao binding modulators, primary screen, biochemical, multiplexed bead flow cytometry (AID 1439);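 also: fluorescent Galphao held in activated GDP-AlF4 state binding bead-coupled RGS7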
# Conditions: at 10 µM, actives lie on both sides
row,SMILES,binding response (% of control)
1,O=C1CCCC2=C1C(c1ccccc1O)C1=C(CCCC1=O)O2,inactive: 110%
2,CCOc1cccc(NC(=O)/C(C#N)=C/c2cccnc2)c1,inconclusive: 102%
3,CC[n+]1c(/C=C/Nc2ccccc2)sc2ccccc21,inactive: 99.3%
4,Cc1ccc(S(=O)(=O)N(C)C)cc1NC(=O)c1cccs1,inconclusive: 103%
5,O=C(O)CC(NC(=O)C(c1ccccc1)c1ccccc1)c1cccc([N+](=O)[O-])c1 (stereo not drawn),inconclusive: 70.8%
6,O=C(NNc1ccc(O)cc1)c1ccc(Br)cc1,inactive: 94.6%
7,O=C(NCC(c1ccc(F)cc1)N1CCOCC1)c1ccccc1F (stereo not drawn),inconclusive: 112%
8,CCOc1cc(/C=N/Nc2nc(-c3cccs3)c(NC(C)=O)s2)ccc1O,inconclusive: 152%
9,Cc1noc(C)c1S(=O)(=O)N(C)CC(=O)Nc1ccc(F)cc1,inactive: 105%
10,CC(=O)/C(N=Nc1ccc(C(=O)O)cc1[N+](=O)[O-])=C(\C)O,inconclusive: 94.7%
11,Nc1cc(S(=O)(=O)N2CCCCC2)ccc1Oc1ccccc1,inconclusive: 102%
12,O=C(NCc1ccco1)C(=O)c1c[nH]c2ccccc12,inconclusive: 117%
13,Cc1cc(C)cc(SCc2noc(C(=O)NCc3ccccc3)c2C(=O)NCc2ccccc2)c1,inconclusive: 73.8%
14,COc1ccc(CSc2nnc3[nH]c(=O)cc(N)n23)cc1,inconclusive: 116%
15,CC(=O)c1sc(-c2ccccc2)cc1N,inconclusive: 66%
16,COc1cccc(CN2C[C@]34C=C[C@@H](C[C@@H]3S2(=O)=O)O4)c1,inconclusive: 97.8%
17,Cn1cnc([N+](=O)[O-])c1Sc1n[nH]c(N)n1,inconclusive: 115%
18,N/C(CN1CCSCC1)=N\OCc1c(F)cccc1Cl,inconclusive: 339%
19,CN(CCC#N)C(=S)Nc1ccc(F)cc1,inconclusive: 263%
20,CCC(C)(C)C1CCc2[nH]nc(C(=O)N/N=C(\C)c3ccco3)c2C1 (stereo not drawn),inconclusive: 89.4%

# An excerpt from above in order of molecular weight, low to high:
row,SMILES,binding response (% of control)
10,CC(=O)/C(N=Nc1ccc(C(=O)O)cc1[N+](=O)[O-])=C(\C)O,inconclusive: 94.7%
16,COc1cccc(CN2C[C@]34C=C[C@@H](C[C@@H]3S2(=O)=O)O4)c1,inconclusive: 97.8%
18,N/C(CN1CCSCC1)=N\OCc1c(F)cccc1Cl,inconclusive: 339%
4,Cc1ccc(S(=O)(=O)N(C)C)cc1NC(=O)c1cccs1,inconclusive: 103%
13,Cc1cc(C)cc(SCc2noc(C(=O)NCc3ccccc3)c2C(=O)NCc2ccccc2)c1,inconclusive: 73.8%

# Continuation:

row,SMILES,binding response (% of control)
1,CCCn1c(C(C)NC(=O)c2ccccc2)n[nH]c1=S (stereo not drawn),inconclusive: 59.3%
2,CCN(CC)CCC(c1cc(OC)c(OC)c(OC)c1)c1c(OC)cc(OC)c2ccc(=O)oc12 (stereo not drawn),inconclusive: 67.8%
3,Cc1cc(C)n(-c2nc(NCCN(C)C)c3c4c(sc3n2)COC(C)(C)C4)n1,inconclusive: 89.2%
4,O=C(NC1CCSC1)c1cccc(Cl)c1 (stereo not drawn),inconclusive: 139%
5,O=C(Nc1ncc(S(=O)(=O)c2ccc([N+](=O)[O-])cc2)s1)c1ccccc1F,inconclusive: 111%
6,Cn1cc(S(=O)(=O)NC(c2ccccc2)c2ccccc2)c(=O)n(C)c1=O,inconclusive: 113%
7,Cc1cc(O)ccc1C1(c2ccc(O)cc2C)OC(=O)c2ccccc21,inactive: 103%
8,CSc1nc2ccc(NC(=O)c3c(F)cccc3F)cc2s1,inconclusive: 89.5%
9,Cc1nnc(SCc2nnc(-c3cccs3)o2)n1Cc1ccccc1,inconclusive: 113%
10,N/C(=N\c1nc(CSc2nc3ccccc3s2)cc(=O)[nH]1)Nc1ccc(F)cc1,inconclusive: 93.5%
11,NC(=O)C1(N2CCCCC2)CCN(S(=O)(=O)c2cc(Cl)sc2Cl)CC1,inconclusive: 110%
12,N#CC(/C(=N/S(=O)(=O)c1cccs1)c1ccccc1)c1nc2ccccc2[nH]1 (stereo not drawn),inactive: 92.7%
13,Cc1cc(Br)c(OCC(=O)NN)c2c1CCC2,inconclusive: 73.1%
14,CCCc1nnc(NC(=O)C(=O)NCCN(C)C)s1,inconclusive: 112%
15,Cc1cccc(C)c1NC(=O)CCn1cnc2ccccc2c1=O,inconclusive: 98.1%
16,O=C(NNc1c(Cl)cncc1Cl)c1cccs1,inconclusive: 73.1%
17,O=Cc1ccccc1Oc1nc(N2CCOCC2)nc(N2CCOCC2)n1,inconclusive: 104%
18,COc1ccc(-c2nnc(SCC(=O)NCCc3ccc(S(N)(=O)=O)cc3)o2)cc1OC,inconclusive: 103%
19,C=CCn1nnnc1-c1cc(Cl)cc(Cl)c1,inactive: 99.6%
20,COc1cc(/C=C/C(=O)OCC(=O)NCCC2=CCCCC2)ccc1O,inconclusive: 113%

row,SMILES,binding response (% of control)
1,COc1cc(/C=C/c2ccc3c([N+](=O)[O-])cccc3n2)ccc1OCC(=O)O,inconclusive: 87.3%
2,CCOC(=O)CN(C(=O)CSc1nnc(COc2ccc(OC)cc2)n1C)c1ccccc1,inactive: 101%
3,Cc1cc(C(=O)NNC(=S)NC(C)c2ccccc2)c2ccccc2n1 (stereo not drawn),inactive: 105%
4,Cc1ccc(-n2c(-c3ccccc3)c[n+]3c2CCc2ccccc2-3)c(C)c1,inactive: 107%
5,O=C(O)c1cccnc1SCC(=O)C12CC3CC(CC(C3)C1)C2,inconclusive: 92.8%
6,CCOC(=O)c1ccc(NC(=O)c2nc[nH]c2C(=O)N[C@@H](CC(C)C)C(=O)OCc2ccccc2)cc1,inconclusive: 95.7%
7,COCCNc1nc(-c2cc(C)c(C)cc2C)cs1,inactive: 101%
8,C[C@H](NC(=O)OCc1ccccc1)C(=O)NNC(=O)[C@H](C)NC(=O)OCc1ccccc1,inconclusive: 103%
9,O=C(/C=C/c1ccccc1)NCCc1nc2ccccc2[nH]1,inconclusive: 95.4%
10,O=C(Nc1nc2ccccc2s1)C1CCN(S(=O)(=O)c2cc([N+](=O)[O-])ccc2Cl)CC1,inconclusive: -1.92%
11,CN(C)C(=O)NC(NC(=S)Nc1ccccc1)C(Cl)(Cl)Cl (stereo not drawn),inactive: 85.1%
12,O=C(NCCc1ccccn1)C(F)(F)C(F)(F)C(F)(F)C(F)(F)C(F)(F)C(F)(F)C(F)(F)C(F)F,inactive: 98.9%
13,NS(=O)(=O)c1ccc(CCNC(=O)COC(=O)CCc2ccccc2)cc1,inconclusive: 110%
14,c1ccc(-c2ccc(-c3nccc4ccccc34)[nH]2)cc1,inconclusive: 68.4%
15,Cc1ccc(-n2ncc3c(=O)[nH]c(SCC(=O)N4CCCC4)nc32)cc1C,inactive: 102%
16,O=c1c2ccccc2nnn1Cc1ccccc1Cl,inconclusive: 99%
17,C/C(=N\NC(=O)C1CC1)c1ccccc1O,inconclusive: 117%
18,C=C(C)CSc1nc2c(c(=O)[nH]c(=O)n2C)n1Cc1ccccc1,inconclusive: 96.3%
